Values from PubChem BioAssay AID1259308 (NCATS, 2017).

Purpose: 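Genes whose loss raises luciferase production in HEK293 cells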 (primary screen)
Cell system: human HEK293 embryonic kidney cells stably expressing firefly luciferase (HEK-CMV-Luc2-Hygro)
Knock-down reagent: single siRNA against human genes, 0.8 pmol siRNA per well
Duration: 72 h
Read-out: 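Luciferase light (ONE-Glo) measured on one replicate plate set and viability (CellTiter-Glo) on the other, scaled to a negative control siRNA, with robust z-scores and luciferase per cell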
Scale: total luciferase, z-score and total luciferase, % of control: higher = more reporter protein produced; luciferase per cell, z-score: higher = more reporter output per viable cell; viable cells, % of control: higher = more viable cells
Active means: 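An siRNA counts as active if its total luciferase robust z-score exceeds 3; genes with two or more such siRNAs out of three were retested with fresh siRNAs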
Calls: active = raised luciferase; inactive = no rise
Here is a random part of about 59,000 deposited reagents. Of all reagents, about 1,510 (2.6%) were called active. 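Calls use total luciferase alone and ignore viability, so some active siRNAs may act by altering cell number.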 The numbers tell different reagents against one gene apart.

gene knocked down,siRNA no.,"total luciferase, z-score","total luciferase, % of control","luciferase per cell, z-score","viable cells, % of control",call
FUNDC2 (GeneID 65991),1,-2.61,30,-2.73,68.8,inactive
FUNDC2 (GeneID 65991),2,-0.0222,81.4,0.107,88.5,inactive
FUNDC2 (GeneID 65991),3,3.69,155,3.11,76.5,active
OR51A7 (GeneID 119687),1,-0.419,73.6,0.239,77.2,inactive
OR51A7 (GeneID 119687),2,-0.547,71,-0.694,95.2,inactive
OR51A7 (GeneID 119687),3,0.186,85.6,0.276,88.9,inactive
FOXP1 (GeneID 27086),1,1.34,109,0.794,98.5,inactive
FOXP1 (GeneID 27086),2,0.31,88.1,0.313,90.6,inactive
FOXP1 (GeneID 27086),3,0.923,100,0.436,99.9,inactive
WFDC10B (GeneID 280664),1,-1.08,60.4,-1.47,99.3,inactive
WFDC10B (GeneID 280664),2,3.31,148,4.23,54.1,active
WFDC10B (GeneID 280664),3,-0.48,72.3,0.278,75.1,inactive
COPS3 (GeneID 8533),1,-1.32,55.7,-1.79,99.8,inactive
COPS3 (GeneID 8533),2,-1.2,58,-1.01,84.5,inactive
COPS3 (GeneID 8533),3,-0.339,75.1,-1.21,115,inactive
LRRC4B (GeneID 94030),1,0.77,97.2,0.46,96.2,inactive
LRRC4B (GeneID 94030),2,-0.0491,80.9,0.337,82.7,inactive
LRRC4B (GeneID 94030),3,-1.82,45.8,-2.57,101,inactive
TFIP11 (GeneID 24144),1,1.45,111,0.785,101,inactive
TFIP11 (GeneID 24144),2,-1.51,51.8,-0.532,66.6,inactive
TFIP11 (GeneID 24144),3,0.044,82.8,-0.00229,92.5,inactive
GIMAP4 (GeneID 55303),1,2.78,137,1.99,90.7,inactive
GIMAP4 (GeneID 55303),2,-1.04,61.1,-1.38,98.3,inactive
GIMAP4 (GeneID 55303),3,-0.404,73.9,-0.596,96.6,inactive

Looked up above:
Result of FOXP1 (GeneID 27086) #2 under “call”: inactive
For “total luciferase, z-score”, LRRC4B (GeneID 94030) #1 has 0.77
FOXP1 (GeneID 27086) #1, viable cells, % of control: 98.5

The list goes on.
gene knocked down,siRNA no.,"total luciferase, z-score","total luciferase, % of control","luciferase per cell, z-score","viable cells, % of control",call
SLAMF8 (GeneID 56833),1,-1.13,59.5,-0.473,75.3,inactive
SLAMF8 (GeneID 56833),2,1.24,106,1.64,77.2,inactive
SLAMF8 (GeneID 56833),3,-1.22,57.7,-0.918,82.1,inactive
ZNF33A (GeneID 7581),1,-0.708,67.8,-0.648,89.9,inactive
ZNF33A (GeneID 7581),2,-1.24,57.3,0.0243,63.6,inactive
ZNF33A (GeneID 7581),3,1.25,107,1.68,76.6,inactive
PNMA8B (GeneID 57469),1,1.79,117,2.3,71.6,inactive
PNMA8B (GeneID 57469),2,-1.66,48.9,-1.51,81.3,inactive
PNMA8B (GeneID 57469),3,0.598,93.8,1.06,79.3,inactive
OR4Q3 (GeneID 441669),1,0.634,94.5,0.167,101,inactive
OR4Q3 (GeneID 441669),2,0.226,86.4,0.0899,94.3,inactive
OR4Q3 (GeneID 441669),3,-0.134,79.2,-0.715,107,inactive
KCNA3 (GeneID 3738),1,-0.346,75,-0.571,97.4,inactive
KCNA3 (GeneID 3738),2,0.678,95.4,0.127,103,inactive
KCNA3 (GeneID 3738),3,-2.38,34.5,-2.02,65.6,inactive
